Data taken from PMC5146969.
Read-outs that look alike come from different tables or passages of the source. No constants are given. Whether binding was seen depends on the method and setting. Binding seen in cells or lysates may run through a third protein. Some entries that bind do so weakly or less than the wild type. For part of these data: Tags and fused reporters may be left off the sequences shown. Blank lines part the entries; values can stand above or below the molecule they belong to.

Amino acid sequences for entries named in this document (tags omitted).
UniProt Q04207: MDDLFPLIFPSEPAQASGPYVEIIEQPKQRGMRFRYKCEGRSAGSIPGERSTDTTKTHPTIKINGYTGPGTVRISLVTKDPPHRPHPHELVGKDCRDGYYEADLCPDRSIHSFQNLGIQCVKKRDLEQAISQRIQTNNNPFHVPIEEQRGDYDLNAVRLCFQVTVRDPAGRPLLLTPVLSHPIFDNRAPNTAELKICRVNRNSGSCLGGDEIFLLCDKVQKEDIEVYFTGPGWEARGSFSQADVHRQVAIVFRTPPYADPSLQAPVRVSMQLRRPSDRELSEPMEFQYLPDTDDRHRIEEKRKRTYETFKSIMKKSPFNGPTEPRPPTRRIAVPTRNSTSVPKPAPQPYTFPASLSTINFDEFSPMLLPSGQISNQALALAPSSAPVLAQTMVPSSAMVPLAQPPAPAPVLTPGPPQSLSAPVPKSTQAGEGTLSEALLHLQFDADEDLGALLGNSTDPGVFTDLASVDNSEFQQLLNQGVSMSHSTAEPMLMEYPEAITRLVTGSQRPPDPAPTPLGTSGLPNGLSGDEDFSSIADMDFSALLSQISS

Columns and labels:
Test in all cases: co-IP; RAW 264.7 macrophages stimulated with LPS (80 ng/ml) for the indicated times; lysed in 1% digitonin, 2 h, 4 °C; lysates with primary antibody (anti-TAK1, anti-IKKα or anti-p65) overnight at 4 °C, protein G-Sepharose 1 h; washed with 0.1% digitonin; immunoblot; cells also with stable GFP-STRAP, GFP-STRAPΔC, shRNA-GFP or shRNA-STRAP
[1] = biological target: T1, IκB kinase alpha (IKKα), endogenous (mouse (endogenous in RAW 264.7)) (UniProt Q60680)
T1 sequence: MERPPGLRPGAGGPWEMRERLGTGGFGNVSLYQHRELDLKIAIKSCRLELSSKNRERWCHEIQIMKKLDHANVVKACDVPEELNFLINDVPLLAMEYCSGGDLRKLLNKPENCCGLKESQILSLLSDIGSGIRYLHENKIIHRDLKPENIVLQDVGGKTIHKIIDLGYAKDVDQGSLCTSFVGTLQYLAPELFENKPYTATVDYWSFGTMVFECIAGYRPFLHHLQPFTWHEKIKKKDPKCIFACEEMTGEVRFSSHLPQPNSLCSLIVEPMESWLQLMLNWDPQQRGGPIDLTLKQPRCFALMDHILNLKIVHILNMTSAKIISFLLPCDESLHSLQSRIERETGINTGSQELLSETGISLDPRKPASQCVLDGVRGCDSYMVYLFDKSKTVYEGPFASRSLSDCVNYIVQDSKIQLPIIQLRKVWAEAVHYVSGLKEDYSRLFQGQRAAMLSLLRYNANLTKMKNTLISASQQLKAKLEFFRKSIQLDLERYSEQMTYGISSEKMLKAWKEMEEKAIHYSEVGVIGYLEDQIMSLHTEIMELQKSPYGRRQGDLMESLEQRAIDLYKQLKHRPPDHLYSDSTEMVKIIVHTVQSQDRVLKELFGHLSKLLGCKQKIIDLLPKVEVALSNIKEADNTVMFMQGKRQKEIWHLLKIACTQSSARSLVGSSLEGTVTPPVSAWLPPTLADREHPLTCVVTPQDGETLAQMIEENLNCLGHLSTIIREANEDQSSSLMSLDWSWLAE

[2] = biological target: T1, IκB kinase alpha (IKKα), endogenous (mouse (endogenous in RAW 264.7)); remark: listed apart in the source
[3] = biological target: nuclear factor-κB (NF-κB) subunit p65, endogenous (mouse (endogenous in RAW 264.7)) (UniProt Q04207)
[4] = biological target: T2, transforming growth factor β-activated kinase 1 (TAK1), endogenous (mouse (endogenous in RAW 264.7)) (UniProt Q62073)
T2 sequence: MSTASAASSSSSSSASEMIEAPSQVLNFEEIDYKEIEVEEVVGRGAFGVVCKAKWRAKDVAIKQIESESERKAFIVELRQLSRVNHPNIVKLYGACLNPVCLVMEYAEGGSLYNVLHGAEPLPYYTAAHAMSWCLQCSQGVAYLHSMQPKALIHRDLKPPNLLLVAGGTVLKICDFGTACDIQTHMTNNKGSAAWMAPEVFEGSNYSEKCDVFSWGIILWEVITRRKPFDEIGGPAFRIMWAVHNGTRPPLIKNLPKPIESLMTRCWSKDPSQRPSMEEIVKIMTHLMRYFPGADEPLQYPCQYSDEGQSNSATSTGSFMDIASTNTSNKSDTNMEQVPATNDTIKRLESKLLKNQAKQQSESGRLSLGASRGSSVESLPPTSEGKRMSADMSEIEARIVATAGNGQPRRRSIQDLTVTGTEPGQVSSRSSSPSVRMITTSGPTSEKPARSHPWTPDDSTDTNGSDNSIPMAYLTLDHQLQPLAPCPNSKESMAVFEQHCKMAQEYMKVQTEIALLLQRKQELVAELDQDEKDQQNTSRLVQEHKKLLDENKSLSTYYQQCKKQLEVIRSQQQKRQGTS

- binding [1]: binds
Molecule: nuclear factor-κB (NF-κB) subunit p65, endogenous (from UniProt Q04207 1-549)

- binding [2]: binds
- binding [3]: binds
B1: transforming growth factor β-activated kinase 1 (TAK1), endogenous (enzyme, UniProt Q62073 1-579)
chain: T2 sequence

- binding [2]: binds
- binding [3]: binds
- binding [4]: binds
B2: GFP-tagged STRAP (serine/threonine kinase receptor-associated protein), mouse (protein, UniProt Q9Z1Z2 1-350)
chain: MAMRQTPLTCSGHTRPVVDLAFSGITPYGYFLISACKDGKPMLRQGDTGDWIGTFLGHKGAVWGATLNKDATKAATAAADFTAKVWDAVSGDELMTLAHKHIVKTVDFTQDSNYLLTGGQDKLLRIYDLNKPEAEPKEISGHTSGIKKALWCSDDKQILSADDKTVRLWDHATMTEVKSLNFNMSVSSMEYIPEGEILVITYGRSIAFHSAVSLEPIKSFEAPATINSASLHPEKEFLVAGGEDFKLYKYDYNSGEELESYKGHFGPIHCVRFSPDGELYASGSEDGTLRLWQTVVGKTYGLWKCVLPEEDSGELAKPKIGFPETAEEELEEIASENSDSIYSSTPEVKA

- binding [2]: binds
- binding [3]: binds
- binding [4]: binds
B3: endogenous STRAP (serine/threonine kinase receptor-associated protein) (protein, UniProt Q9Z1Z2 1-350)
chain: B2 chain
